Measured values as given in paper PMC3549499.
These are yes or no findings as the source states them, for the method shown. In cells and extracts the contact can be indirect.

Amino acid sequences for entries named in this document (tags omitted).
UniProt Q80U72: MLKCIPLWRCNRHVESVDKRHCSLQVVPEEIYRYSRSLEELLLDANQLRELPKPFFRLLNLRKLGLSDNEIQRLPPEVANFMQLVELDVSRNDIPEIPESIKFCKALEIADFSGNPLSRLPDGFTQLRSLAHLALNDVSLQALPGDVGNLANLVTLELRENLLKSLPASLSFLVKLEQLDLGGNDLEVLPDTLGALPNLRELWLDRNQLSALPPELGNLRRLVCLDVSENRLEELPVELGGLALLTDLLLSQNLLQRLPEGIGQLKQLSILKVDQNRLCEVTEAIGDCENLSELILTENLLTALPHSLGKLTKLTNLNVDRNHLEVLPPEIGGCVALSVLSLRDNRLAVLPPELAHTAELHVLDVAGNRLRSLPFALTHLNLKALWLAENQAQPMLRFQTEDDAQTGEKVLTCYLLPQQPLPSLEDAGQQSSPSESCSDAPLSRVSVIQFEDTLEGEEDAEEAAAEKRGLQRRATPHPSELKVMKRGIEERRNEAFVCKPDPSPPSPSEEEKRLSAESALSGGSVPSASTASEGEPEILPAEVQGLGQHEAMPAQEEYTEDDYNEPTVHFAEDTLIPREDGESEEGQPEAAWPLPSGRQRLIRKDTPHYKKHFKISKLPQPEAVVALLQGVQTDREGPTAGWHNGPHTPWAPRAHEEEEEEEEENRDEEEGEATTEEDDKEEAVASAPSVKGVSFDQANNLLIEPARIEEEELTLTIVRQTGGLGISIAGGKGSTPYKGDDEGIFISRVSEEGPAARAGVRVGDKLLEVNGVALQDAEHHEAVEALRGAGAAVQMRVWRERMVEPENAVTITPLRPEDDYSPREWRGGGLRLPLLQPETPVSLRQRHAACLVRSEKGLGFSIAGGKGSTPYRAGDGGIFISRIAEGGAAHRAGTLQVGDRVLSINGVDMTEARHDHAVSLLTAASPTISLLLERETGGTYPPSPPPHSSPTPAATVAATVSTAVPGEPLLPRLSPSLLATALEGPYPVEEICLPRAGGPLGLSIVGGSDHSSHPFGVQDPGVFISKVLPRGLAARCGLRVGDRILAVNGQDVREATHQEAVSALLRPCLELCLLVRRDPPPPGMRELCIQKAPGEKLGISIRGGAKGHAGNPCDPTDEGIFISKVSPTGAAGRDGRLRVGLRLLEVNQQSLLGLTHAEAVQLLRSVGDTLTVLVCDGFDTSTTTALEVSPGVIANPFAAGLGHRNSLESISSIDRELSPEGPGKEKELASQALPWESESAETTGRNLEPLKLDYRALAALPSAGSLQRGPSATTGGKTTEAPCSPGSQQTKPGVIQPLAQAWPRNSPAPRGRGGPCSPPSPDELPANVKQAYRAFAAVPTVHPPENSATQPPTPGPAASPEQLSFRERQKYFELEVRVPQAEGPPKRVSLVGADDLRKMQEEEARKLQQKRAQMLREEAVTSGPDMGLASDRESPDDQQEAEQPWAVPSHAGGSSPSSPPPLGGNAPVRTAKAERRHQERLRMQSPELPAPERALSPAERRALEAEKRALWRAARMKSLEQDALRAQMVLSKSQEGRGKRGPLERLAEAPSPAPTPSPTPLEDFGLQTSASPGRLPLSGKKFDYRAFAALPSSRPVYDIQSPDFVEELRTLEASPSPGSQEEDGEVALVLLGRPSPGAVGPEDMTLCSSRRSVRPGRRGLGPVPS

Tests used:
[1] = molecular target: T1, ZO-2 (mouse (endogenous in embryonic lung)) (UniProt Q9Z0U1); assay: co-IP; separate immunoprecipitations with antibodies to ZO-2 or to Scrib from E13.5/14.5 mouse lung lysates; no figure shown
T1 sequence: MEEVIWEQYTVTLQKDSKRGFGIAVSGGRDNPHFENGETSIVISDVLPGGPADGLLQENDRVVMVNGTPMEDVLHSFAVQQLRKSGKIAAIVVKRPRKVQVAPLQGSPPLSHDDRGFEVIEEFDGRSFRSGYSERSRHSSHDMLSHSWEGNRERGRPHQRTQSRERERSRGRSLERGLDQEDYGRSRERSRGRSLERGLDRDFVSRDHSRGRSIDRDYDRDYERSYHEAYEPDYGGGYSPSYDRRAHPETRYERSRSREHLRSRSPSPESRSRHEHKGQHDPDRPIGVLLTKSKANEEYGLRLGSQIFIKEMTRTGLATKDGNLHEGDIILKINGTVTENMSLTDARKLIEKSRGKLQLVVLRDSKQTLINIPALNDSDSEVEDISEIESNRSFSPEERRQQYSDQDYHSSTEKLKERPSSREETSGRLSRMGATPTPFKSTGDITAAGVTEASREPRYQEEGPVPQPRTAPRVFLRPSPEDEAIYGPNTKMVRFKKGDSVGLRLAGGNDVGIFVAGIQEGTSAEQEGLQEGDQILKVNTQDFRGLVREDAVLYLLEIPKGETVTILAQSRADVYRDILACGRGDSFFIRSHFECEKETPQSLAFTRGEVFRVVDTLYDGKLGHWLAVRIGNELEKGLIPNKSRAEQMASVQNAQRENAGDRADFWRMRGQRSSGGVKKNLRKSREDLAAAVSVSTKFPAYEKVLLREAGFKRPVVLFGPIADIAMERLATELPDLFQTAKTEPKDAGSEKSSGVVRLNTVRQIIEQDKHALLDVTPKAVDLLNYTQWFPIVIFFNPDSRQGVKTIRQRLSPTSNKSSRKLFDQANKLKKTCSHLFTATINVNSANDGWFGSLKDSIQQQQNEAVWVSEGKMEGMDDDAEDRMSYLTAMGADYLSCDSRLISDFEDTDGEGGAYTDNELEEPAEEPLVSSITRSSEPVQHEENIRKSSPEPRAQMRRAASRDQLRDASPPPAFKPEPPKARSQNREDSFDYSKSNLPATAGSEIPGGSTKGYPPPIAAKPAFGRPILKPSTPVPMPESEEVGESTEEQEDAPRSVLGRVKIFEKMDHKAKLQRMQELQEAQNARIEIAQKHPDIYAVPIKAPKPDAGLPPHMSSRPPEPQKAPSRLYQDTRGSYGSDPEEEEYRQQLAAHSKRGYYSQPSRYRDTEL

[2] = molecular target: Scribble (mouse (endogenous in embryonic lung)) (UniProt Q80U72); assay: as above

For Scribble (from UniProt Q80U72 1-1665), the binding [1] was “no binding”.

B1: ZO-2 (protein, UniProt Q9Z0U1 1-1167)
chain: T1 sequence
In the case of B1, the binding [2] is reported as “no binding”.
